Tested on: ⅚ nephrectomized rat model
Test: Effect on ⅚ nephrectomized rat model: renal functions
Type: in vivo, Wistar rats
Method: The effect of beraprost sodium on a ⅚ nephrectomized rat model, which has been widely used as a model animal for renal failure, was examined. Two-thirds of the left kidney was removed from each of 4-week-old male Wistar rats (Charles River Japan Inc.) with a razor, and all of the right kidney was then removed therefrom one week after. Three weeks after the initial surgery, blood was collected from each rat through the tail vein and serum creatinine and BUN levels were determined from the blood. At this point of time, the urine was also collected for 24 hours to determine the mass of proteins in the urine. The rats were allocated to one of the treatment groups by the stratifying continuous randomization method based on the mass of proteins in the urine and the body weight (n=8 per group). […] Three weeks after the initial surgery, beraprost sodium or captopril (SIGMA, i.e., a positive control) was orally administered to each rat twice a day everyday, beginning the day on which administration of a drug was started and continued through five weeks after the administration. The determination of the renal functions was performed both three weeks and five weeks after the initial administration of a drug. The photographic images of the renal tissue were observed only five weeks after the initial administration.

Compound	Body weight (100 μg/kg oral twice a day, five weeks after the administration of a drug)	Body weight (100 μg/kg oral twice a day, three weeks after the administration of a drug)	Body weight (300 μg/kg oral twice a day, five weeks after the administration of a drug)	Body weight (300 μg/kg oral twice a day, three weeks after the administration of a drug)	Body weight (50 mg/kg oral twice a day, five weeks after the administration of a drug)	Body weight (50 mg/kg oral twice a day, three weeks after the administration of a drug)
CC#CCC(C)[C@H](O)/C=C/C1[C@H](O)C[C@@H]2Oc3c(CCCC(=O)[O-])cccc3[C@H]12.[Na+] (mixture of isomers) [Beraprost sodium, beraprost sodium]	228.7 ± 5.7 g	215.5 ± 5.3 g	245.8 ± 8.0 g	221.0 ± 6.3 g		
C[C@H](CS)C(=O)N1CCC[C@H]1C(=O)O [Captopril, captopril, reference compound]					236.4 ± 5.7 g	220.6 ± 5.4 g

Source: patent US20030092760A1, “Therapeutic agent for renal failure” (Toray Industries, Inc., priority 2001, published 2003)
